Experimental data as given in PubChem BioAssay AID1347131 (National Center for Advancing Translational Sciences (NCATS), 2019).
Among all 410,000 compounds or so, about 2,000 (0.49%) were called active. Inconclusive results, whose numbers are uncertain, are shown with a selection of clear calls. Calls come from the whole dose curve; tested in HEK293 reporter line. Where the call is inconclusive, the potency comes from a doubtful curve fit.

Assay: qHTS Assay for Foot and Mouth Disease Virus Antivirals: Primary Screen against the MLPCN compound library; note: nearly all actives have a fitted effect of over 55% in size
Details: FMDV antiviral cell-based qHTS; activity, negative = inhibition: at 57.9 µM (top of the series)
Potency is the fitted concentration of half-maximal effect.

SMILES	Potency	activity, negative = inhibition
COc1ccccc1CNc1nc(NCc2ccccc2F)c2sccc2n1	inconclusive: 28.2 µM [inhibitor, single point]	–
CN(Cc1ccccc1)c1nc(N)c([N+](=O)[O-])c(NCc2ccccc2)n1	inconclusive: 35.5 µM [inhibitor, partial curve, poor fit]	–
O=C(CCCn1c(=O)[nH]c2ccccc2c1=O)NCCSCc1ccccc1	inconclusive: 25.1 µM [inhibitor, partial curve, poor fit]	–
O=C(CCCSc1ccccc1)Nc1ccc(Cl)c(S(=O)(=O)N2CCOCC2)c1	inconclusive: 25.1 µM [inhibitor, partial curve, poor fit]	–
CCOc1ccc2[nH]c3c(N4CCc5ccccc5C4)ncnc3c2c1	inconclusive: 31.6 µM [inhibitor, single point]	–
COc1ccc(OC)c2sc(N(CCCN(C)C)C(=O)CCS(=O)(=O)c3ccccc3)nc12	inconclusive: 35.5 µM [inhibitor, partial curve, poor fit]	–
CCOC(=O)c1c(NC(=O)/C=C/C(=O)O)sc(C)c1-c1ccc(C(C)(C)C)cc1	inconclusive: 17.8 µM [inhibitor, partial curve, poor fit]	–
COc1ccc(/C=N/NC(=O)c2nonc2C)cc1	active: 11.2 µM	–
CC(C)(C)c1nnc2sc(SCC(=O)c3ccccc3)nn2c1=O	–	inconclusive: -53.6% [inhibitor]
O=c1c2sccc2n(Cc2cc(=O)n3ccccc3n2)c(=O)n1-c1cc(F)ccc1F	inconclusive: 11.2 µM [inhibitor, partial curve, poor fit]	–
Nc1nc(COC(=O)CCC(=O)c2ccc(Cl)cc2)nc(Nc2ccccc2)n1	–	inactive: -36.9%
O=C(CCl)N1CCN(S(=O)(=O)Cc2ccccc2)CC1	inconclusive: 28.2 µM [inhibitor, partial curve, poor fit]	–
CCn1c(=O)cc(OCC(=O)N2CCN(c3cccc(C)c3C)CC2)c2ccccc21	inconclusive: 20 µM [inhibitor, partial curve, poor fit]	–
CCCCC[C@@H](/C=C/C1C(=O)C=C[C@H]1C/C=C\CCCC(=O)OC)OC(C)=O (some centres undefined)	inconclusive: 28.2 µM [inhibitor, partial curve, poor fit]	–
Cc1ccc(NC(=O)COc2ccccc2)cc1S(=O)(=O)N1CCCCCC1	inconclusive: 28.2 µM [inhibitor, partial curve, poor fit]	–
COc1ccc(-c2c(C)nn3c(N4CCCCCC4)cc(C)nc23)cc1OC	inconclusive: 20 µM [inhibitor, single point]	–
COc1ccc(CCNC(=O)c2ccc3c(c2)N(Cc2ccccc2)CCS3)cc1OC	inconclusive: 14.1 µM [inhibitor, partial curve]	–
CCn1c(C)nc2cc(S(=O)(=O)N3CCCCC3)ccc21	inconclusive: 3.98 µM [inhibitor, full curve]	–
c1ccc(CCNc2ncnc3scc(C4COc5ccccc5O4)c23)cc1 (centres undefined)	inconclusive: 28.2 µM [inhibitor, partial curve, poor fit]	–
CC(C)CN(CC(C)C)C1=N/C(=C\c2ccco2)C(=O)N1c1ccccc1	inconclusive: 8.91 µM [inhibitor, partial curve]	–

SMILES	Potency	activity, negative = inhibition
CN(C)S(=O)(=O)c1ccc(NC(=O)N2CCN(c3cccc(C(F)(F)F)c3)CC2)cc1	inconclusive: 28.2 µM [inhibitor, partial curve, poor fit]	–
CCOC(=O)c1ccc(N=c2sc(C(=O)OC)cc(=O)n2-c2ccc(C(=O)OCC)cc2)cc1	inconclusive: 20 µM [inhibitor, partial curve, poor fit]	–
Fc1ccc2nc(Nc3nc4cc5c(cc4s3)OCCO5)sc2c1	inconclusive: 39.8 µM [inhibitor, single point]	–
CCNC(=S)NNC(=O)c1cc(-c2ccc(OC)cc2)nc2ccccc12	inconclusive: 11.2 µM [inhibitor, partial curve, poor fit]	–
CCOC(=O)c1ccc(NC(=O)Cn2ncc(Cl)c(Cl)c2=O)cc1	inconclusive: 39.8 µM [inhibitor, single point]	–
CC(=O)c1ccc(N2CCN(C(=O)Nc3ccc(C(C)C)cc3)CC2)cc1	inconclusive: 14.1 µM [inhibitor, partial curve, poor fit]	–
Cc1ccccc1NC(=O)c1c(-c2ccccc2)noc1C	–	inconclusive: -31.9% [inhibitor]
O=C(c1ccc2[nH]ccc2c1)N1CCOc2ccc(CN3CCN(c4ccccn4)CC3)cc2C1	inconclusive: 25.1 µM [inhibitor, partial curve, poor fit]	–
CC(C)c1ccc(NC(=O)Cn2cc(S(=O)(=O)Cc3ccccc3Cl)c3ccccc32)cc1	inconclusive: 22.4 µM [inhibitor, single point]	–
CCOC(=O)Nc1ccc2nc(Sc3ccc(Cl)cc3)sc2c1	inconclusive: 12.6 µM [inhibitor, partial curve]	–
Cc1nn(-c2cccc(C(F)(F)F)c2)c(Cl)c1/C=N/Nc1cccc(C(=O)O)c1	inconclusive: 3.55 µM [inhibitor, full curve]	–
CC(C)C(=O)Nc1ccc2nc(SCC(=O)N3CCc4ccccc43)sc2c1	inconclusive: 35.5 µM [inhibitor, partial curve, poor fit]	–
C#CCOc1ccccc1/C=C1/C(=O)ON=C1C	inconclusive: 39.8 µM [inhibitor, single point]	–
COCCn1c(-c2ccco2)csc1=Nc1cccnc1	inconclusive: 15.8 µM [inhibitor, partial curve]	–
O=C(c1ccc2ncsc2c1)N1CCN(c2cccc(C(F)(F)F)c2)CC1	inconclusive: 20 µM [inhibitor, partial curve, poor fit]	–
Cc1ccc(CS(=O)(=O)c2ncc(Cl)c(C(=O)Nc3ccc(OC(F)F)cc3)n2)cc1	inconclusive: 25.1 µM [inhibitor, partial curve, poor fit]	–
O=c1[nH]c2ccc(S(=O)(=O)N3CCC(Cc4ccccc4)CC3)cc2o1	inconclusive: 12.6 µM [inhibitor, partial curve]	–
Cc1noc(C)c1S(=O)(=O)Nc1ccc(C(=O)N2CCN(c3ccc(Cl)cc3)CC2)cc1	inconclusive: 25.1 µM [inhibitor, partial curve, poor fit]	–
Cc1cc(C(=O)Nc2nc3c(s2)CCCC3)no1	inconclusive: 15.8 µM [inhibitor, single point]	–
O=C(Nc1ccon1)c1cccn(Cc2cccc([N+](=O)[O-])c2)c1=O	inconclusive: 8.91 µM [inhibitor, partial curve]	–

SMILES	Potency	activity, negative = inhibition
Cc1ccccc1C(=O)N1CCC2CC1c1cc(-c3ccc(F)cc3)ccc12 (centres undefined)	inconclusive: 31.6 µM [inhibitor, partial curve, poor fit]	–
CCC1Sc2ccc(S(=O)(=O)CCC(=O)NCc3ccco3)cc2NC1=O (centres undefined)	–	inactive: -39.4%
C=C1C(C)C2C(Cc3ccccc3)NC(=O)C23OC(=O)/C=C/C(O)CCCC(C)C/C=C/C3C1O (centres undefined)	–	inactive: -34.8%
CN1CCC(c2c[nH]c3ccccc23)C1 (centres undefined)	inconclusive: 15.8 µM [inhibitor, partial curve, poor fit]	–
CCC(C)NC(=O)c1cnn(-c2cccc(F)c2)c1-n1cccc1 (centres undefined)	inconclusive: 25.1 µM [inhibitor, partial curve, poor fit]	–
CCc1cc(=O)[nH]c(SCc2nc(-c3ccc(C(F)(F)F)cc3)no2)n1	–	inactive: -32.9%
CCc1nc2c(OCc3ccc(F)cc3)cccn2c1N(C)C(=O)COc1ccccc1	inconclusive: 31.6 µM [inhibitor, single point]	–
COC1=CC(=O)[C@]2(C=C1OC)OC[C@@H]1Oc3c(ccc4c3C=CC(C)(C)O4)C(=O)[C@@H]12	inconclusive: 15.8 µM [inhibitor, partial curve, poor fit]	–
CC(=O)N(c1cccc(Cl)c1)c1nc(C)cc(C)c1C#N	inconclusive: 5.62 µM [inhibitor, partial curve]	–
COc1cccc(C(c2sc3nc(-c4ccco4)nn3c2O)N2CCN(c3ccccc3F)CC2)c1 (centres undefined)	inconclusive: 0.708 µM [inhibitor, partial curve, poor fit]	–
COc1ccc(NC(=O)NC23CC4(C)CC(C)(CC(C)(C4)C2)C3)cc1OC	–	inactive: -34.1%
NC(=O)CSc1nnnn1-c1cccc(O)c1	inconclusive: 5.01 µM [inhibitor, partial curve]	–
Cc1ccc(N/C(N)=N/c2nc(C)cc(N3CCCCC3)n2)c(C)c1	inconclusive: 15.8 µM [inhibitor, partial curve, poor fit]	–
CCn1c(CCNC(=O)c2ccc(Cl)c(Cl)c2)nnc1SCCOc1ccc(OC)cc1	inconclusive: 39.8 µM [inhibitor, partial curve, poor fit]	–
O=C(NCCc1ccc(F)cc1)c1coc(=O)c(Br)c1	inconclusive: 35.5 µM [inhibitor, partial curve, poor fit]	–
CCCCC(O)(CCCC)C(=O)NN(C(=O)CCl)c1ccccc1	inconclusive: 31.6 µM [inhibitor, partial curve, poor fit]	–
N/C(=N\O)c1ccc([N+](=O)[O-])s1	inconclusive: 7.94 µM [inhibitor, partial curve, poor fit]	–
COc1cccc(NC(=O)Cc2c(O)c3ccccc3[nH]c2=O)c1	inconclusive: 3.16 µM [inhibitor, full curve]	–
O=C(Cn1cnc2c(cnn2-c2ccc(F)cc2)c1=O)N1CCN(c2ccccc2F)CC1	inconclusive: 14.1 µM [inhibitor, partial curve]	–

Entries of single compounds as entered above.
CCC1Sc2ccc(S(=O)(=O)CCC(=O)NCc3ccco3)cc2NC1=O (centres undefined) as listed: activity, negative = inhibition: inactive: -39.4%
CCCCC(O)(CCCC)C(=O)NN(C(=O)CCl)c1ccccc1 as listed: Potency: inconclusive: 31.6 µM [inhibitor, partial curve, poor fit]
CCc1cc(=O)[nH]c(SCc2nc(-c3ccc(C(F)(F)F)cc3)no2)n1 as listed: activity, negative = inhibition: inactive: -32.9%
